Laboratory results: publication PMC5412445, “ZeGlobalTox: An Innovative Approach to Address Organ Drug Toxicity Using Zebrafish” (International Journal of Molecular Sciences, 2017)

What was measured:
[1] = system: zebrafish larvae heart; experiment: ZeGlobalTox cardiotoxicity evaluation (heart video, ZeCardio software); assay type: in vivo, zebrafish (Danio rerio); conditions: 100 hpf, 4 h after drug incubation at NOEC (haloperidol 10 µM)
Experimental: Four cardiac parameters were evaluated to assess whether a compound was cardiotoxic: heart rate (beats per minute, BPM), QTc prolongation, ejection fraction (EJF), and cardiac arrest. […] 1% DMSO was used as the negative control.
Cardiotoxicity evaluation was performed from 96 hpf, when the zebrafish heartbeat is already stabilised, so the analysis might not be altered by unstable beating. Zebrafish hearts were video-recorded at 4 h after drug incubation (100 hpf) and analysed using the ZeCardio® β software (Figure 3A).
After 4 h of drug incubation (100 hpf), zebrafish larvae were anesthetized by immersion in […] tricaine methanesulfonate (A4050, Sigma-Aldrich, Saint Louis, MO, USA)/E3 solution. […] Embryos were positioned in an agarose based mold to allow their appropriate orientation under the fluorescence stereo microscope (Olympus MVX10). Individual fluorescent hearts were recorded during 60 s each (Figure 6A). Videos were acquired with a high-speed recording camera (Hamamatsu C11440 ORCA-flash 2.8) and analysed with the ZeCardio® β software to extract different cardiac parameters—heart rate, cardiac arrest, QTc prolongation, and Ejection Fraction (EJF) (Figure 6B). […]
Heart beat frequency for each chamber is detected and frequencies are presented in the GUI as a mean. […] In the same fashion, chamber specific cardiac arrest is measured as the longest beating pause (Figure 6H). […]

[2] = system: wild type zebrafish embryos; experiment: in vivo; assay type: in vivo; conditions: embryos incubated 3 to 96 hpf; 5 logarithmic concentrations 0.1 µM to 1 mM; 1% DMSO
Excerpt: (§1) Several issues were considered when planning the experimental protocol. The main concern was that drug-induced mortality and/or developmental toxicity (teratogenicity) could mask possible organ-toxicities appearing later in development. […] This preliminary assay allowed for the identification of non-mortal/non-teratogenic concentrations—no observed effect concentration (NOEC)—to use in the following assays. The hypothesis is that NOEC could affect organ physiology (organ toxicity), while uncoupled from putative developmental toxicity side-effects affecting organ development or function. Another consideration was to start drug incubations at 96 hours post fertilization (hpf), when the analysed organs are close to or already developed (Figure 1B). The overall aim is to understand the drug impact on organ physiology and function rather than early embryogenesis. The third consideration was to organize the sequential organ evaluation during the experimental and drug incubation time.
(§2) 1% DMSO, which is the constant solvent concentration in all conditions, was used as the negative control.
(§3) Thus, 20 wild type (wt) zebrafish embryos per condition were incubated with tested compounds from 3 to 96 hpf. The test was performed in 5 logarithmic concentrations per drug (from 0.1 µM to 1 mM). Each larva was analysed for mortality, body deformity, edema, tail detachment, pigmentation, heart activity, heart edema, and motor activity. […] DMSO 1% was used as the negative control in all experiments.

[3] = in vivo; assay type: in vivo; conditions: zebrafish, in vivo; mortality; embryos incubated 3 to 96 hpf; 5 logarithmic concentrations 0.1 µM to 1 mM; 1% DMSO
Excerpt: as §1, §2, §3

[4] = system: humans; conditions: known toxicity in humans, ref TOXNET (HSDB), Side effects (EMBL), drugs.com, cited from earlier work

Compound: Nc1nc2ccc(OC(F)(F)F)cc2s1 [Riluzole, riluzole]
- Heart rate (beats per minute) compared to DMSO-only [1]: decreased the heart rate
- Longest cardiac arrest compared to DMSO-only [1]: Longer cardiac arrest
- 96 hpf LOEC [2]: 10 µM
- 96 hpf NOEC [2]: 1 µM
- LC50 [3]: 13.7 µM
- Neurotoxicity (toxicity in humans) ([4]; [22],[30],[31],[34],[35]): Safe
- Cardiotoxicity (toxicity in humans) ([4]; ema.europa, [19],[20],[21]): Toxic ^2,3
- Hepatotoxicity (toxicity in humans) ([4]; ema.europa, [24],[26],[27],[32],[33]): Toxic ^2,3
